From the supplement of paper PMC12282887

Tested on: Escherichia coli BW25113
Assay: growth (OD600 area under curve, 8 h) (OD600 x h); higher = more growth
Experimental: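 E. coli BW25113 reporter strains (wild type, ΔmarA, ΔsoxS, Δrob, each carrying one of 8 lux reporter plasmids) were grown in 40 µl LB in 384-well plates at 37°C, 800 rpm, with each compound at 4 two-fold concentrations, in biological duplicates. Growth is the baseline-corrected OD600 area under the curve over 8 h (0-8 h WT, 1-9 h deletion strains).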

NC[C@H]1O[C@H](O[C@H]2[C@H](O)[C@@H](O[C@H]3O[C@H](CO)[C@@H](O)[C@H](N)[C@H]3O)[C@H](N)C[C@@H]2N)[C@H](N)C[C@@H]1O [Tobramycin]
growth
Details | reporter plasmid: EVC | reporter plasmid: acrABp | reporter plasmid: marRABp | reporter plasmid: micFp | reporter plasmid: ompFp | reporter plasmid: robp | reporter plasmid: soxSp | reporter plasmid: tolCp
0.12 µg/ml, genetic background: wild type | 2.91 | 2.71 | 2.83 | 2.68 | 2.92 | 2.82 | 2.64 | 2.66
0.12 µg/ml, genetic background: ΔmarA | 2.91 | 4.22 | 3.32 | 3.18 | 3.32 | 3.58 | 2.76 | 2.87
0.12 µg/ml, genetic background: Δrob | 2.89 | 3.02 | 3.07 | 2.67 | 2.61 | 2.85 | 2.66 | 2.63
0.12 µg/ml, genetic background: ΔsoxS | 3.44 | 3.28 | 3.002 | 2.9 | 2.74 | 3.19 | 2.97 | 3.12
0.23 µg/ml, genetic background: wild type | 2.65 | 2.861 | 2.99 | 2.71 | 3.12 | 2.921 | 2.56 | 2.72
0.23 µg/ml, genetic background: ΔmarA | 2.85 | 3.94 | 3.38 | 3.17 | 3.27 | 3.45 | 2.78 | 2.84
0.23 µg/ml, genetic background: Δrob | 2.49 | 2.96 | 3.1 | 2.76 | 2.69 | 2.76 | 2.52 | 2.68
0.23 µg/ml, genetic background: ΔsoxS | 2.89 | 3.1 | 2.96 | 2.42 | 2.61 | 3.22 | 2.61 | 2.77
0.47 µg/ml, genetic background: wild type | 2.73 | 2.27 | 2.43 | 2.453 | 2.69 | 2.81 | 2.32 | 2.45
0.47 µg/ml, genetic background: ΔmarA | 2.8 | 3.88 | 3.14 | 3.05 | 3.28 | 3.55 | 2.69 | 2.73
0.47 µg/ml, genetic background: Δrob | 2.79 | 2.51 | 2.92 | 2.74 | 2.45 | 2.44 | 2.25 | 2.56
0.47 µg/ml, genetic background: ΔsoxS | 2.87 | 2.89 | 2.62 | 2.82 | 2.78 | 3.11 | 2.71 | 2.91
0.94 µg/ml, genetic background: wild type | 0.771 | 6.47e-05 | 0.155 | 0.104 | -0.0226 | 0.109 | 0.176 | 0.829
0.94 µg/ml, genetic background: ΔmarA | 0.879 | -0.0977 | -0.00569 | 1.25 | -0.0403 | 1.21 | -0.0388 | 0.81
0.94 µg/ml, genetic background: Δrob | 1.36 | -0.132 | 0.0562 | 0.442 | -0.0635 | 0.0244 | 0.205 | 1.32
0.94 µg/ml, genetic background: ΔsoxS | 1.17 | -0.0995 | -0.0155 | 0.00513 | -0.0469 | 0.0499 | -0.00804 | 1.29

Values are raw readings; no control value is given beside them.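 Maximum concentrations were near the MIC for antimicrobials, 500 µM for most other compounds, and as high as 1 mM for known inducer-like compounds. Deletion strains began with a tenfold smaller inoculum, and wells with growth under 10% of the overall median counted as non-growing.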
